# These are yes or no findings as the source states them, for the method shown. Binding seen in cells or lysates may run through a third protein. Some entries that bind do so weakly or less than the wild type. Tags and fused reporters may be left off the sequences shown.
# Chains of the proteins cited; added tags and fusions are not shown.
# UniProt P62136: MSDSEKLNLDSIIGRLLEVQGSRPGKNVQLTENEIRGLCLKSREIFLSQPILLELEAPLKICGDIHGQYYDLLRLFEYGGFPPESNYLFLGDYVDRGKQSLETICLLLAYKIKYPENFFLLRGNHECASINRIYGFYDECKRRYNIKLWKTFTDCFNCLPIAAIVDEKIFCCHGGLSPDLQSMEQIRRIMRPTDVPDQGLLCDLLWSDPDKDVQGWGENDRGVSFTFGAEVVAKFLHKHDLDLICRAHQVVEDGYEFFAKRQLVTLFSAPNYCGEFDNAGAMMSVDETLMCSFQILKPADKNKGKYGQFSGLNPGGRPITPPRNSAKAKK
# Molecular target: T1, PCDH7 isoform A, 3×Flag-tagged (pcDNA3.1-PCDH7-A-3×Flag) (human (cDNA from MDA-MB-436 cells)) (UniProt O60245)
# T1 sequence: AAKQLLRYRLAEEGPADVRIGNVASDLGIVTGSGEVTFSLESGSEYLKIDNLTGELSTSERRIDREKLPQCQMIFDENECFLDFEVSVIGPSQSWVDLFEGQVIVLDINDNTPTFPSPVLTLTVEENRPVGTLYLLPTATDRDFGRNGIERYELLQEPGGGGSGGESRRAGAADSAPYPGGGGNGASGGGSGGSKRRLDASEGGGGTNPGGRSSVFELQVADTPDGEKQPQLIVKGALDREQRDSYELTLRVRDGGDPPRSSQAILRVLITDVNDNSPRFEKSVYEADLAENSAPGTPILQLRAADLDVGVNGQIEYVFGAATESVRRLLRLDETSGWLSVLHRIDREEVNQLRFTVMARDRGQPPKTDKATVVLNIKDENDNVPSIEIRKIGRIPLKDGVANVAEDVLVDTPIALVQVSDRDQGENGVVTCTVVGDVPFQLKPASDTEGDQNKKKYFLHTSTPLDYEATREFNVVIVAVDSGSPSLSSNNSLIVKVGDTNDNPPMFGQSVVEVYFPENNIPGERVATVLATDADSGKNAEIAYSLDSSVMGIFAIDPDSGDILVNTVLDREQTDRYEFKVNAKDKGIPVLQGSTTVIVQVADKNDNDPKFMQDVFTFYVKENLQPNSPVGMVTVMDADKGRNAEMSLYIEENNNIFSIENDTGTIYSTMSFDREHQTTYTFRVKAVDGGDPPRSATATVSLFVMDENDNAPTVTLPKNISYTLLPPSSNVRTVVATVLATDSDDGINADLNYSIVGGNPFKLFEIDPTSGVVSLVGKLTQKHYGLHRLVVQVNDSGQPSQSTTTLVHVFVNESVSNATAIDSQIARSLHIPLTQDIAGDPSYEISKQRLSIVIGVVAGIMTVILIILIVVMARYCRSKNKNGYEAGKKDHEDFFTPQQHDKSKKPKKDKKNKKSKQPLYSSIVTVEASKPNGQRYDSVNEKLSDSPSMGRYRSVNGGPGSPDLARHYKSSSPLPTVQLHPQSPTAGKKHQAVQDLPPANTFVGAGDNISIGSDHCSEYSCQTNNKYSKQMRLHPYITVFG
# Test: co-IP; overexpressed proteins in transfected HEK293FT cells; IP lysis buffer (20 mM Tris, 0.1 M NaCl, 0.1% NP40, 5 mM EDTA, pH 8); anti-Flag-Tag antibody and protein A/G agarose, 4°C overnight; western blot
substance,measurement,value
mCherry-tagged PP1α (plasmid pmCherry-PP1α-N1) (from UniProt P62136 1-330) (enzyme),binding,binds
